According to PubChem BioAssay AID1439 (NMMLSC, 2008):
Hit rate of the full screen: of about 220,000 compounds, about 770 (0.35%) were called active. The inconclusive results got no clear call from the source; some entries with a clear call stand among them for comparison. No stated cut-off is given here; in the data, active means binding response below about 49% or above about 150%; inconclusive means no clear call, values can overlap the other calls; inactive means in between.

Protein sequences, listed by entry. Tags and fused reporters are not part of them.
UniProt P09471, whole entry, looked up: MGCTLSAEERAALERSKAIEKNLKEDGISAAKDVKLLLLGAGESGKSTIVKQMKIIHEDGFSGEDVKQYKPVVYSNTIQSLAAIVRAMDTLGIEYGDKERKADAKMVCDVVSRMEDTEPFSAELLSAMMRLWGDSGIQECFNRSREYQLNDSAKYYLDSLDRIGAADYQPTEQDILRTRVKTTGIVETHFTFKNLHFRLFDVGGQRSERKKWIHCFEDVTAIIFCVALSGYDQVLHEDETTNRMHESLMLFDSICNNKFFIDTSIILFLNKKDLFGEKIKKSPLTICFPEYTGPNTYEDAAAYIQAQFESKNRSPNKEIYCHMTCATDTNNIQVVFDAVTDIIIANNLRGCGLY

Target: Guanine nucleotide-binding protein G(o) subunit alpha (Homo sapiens) (UniProt P09471)
Test: RGS7-Galphao binding modulators, primary screen, biochemical, multiplexed bead flow cytometry (AID 1439);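 further: fluorescent Galphao held in activated GDP-AlF4 state binding bead-coupled RGS7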
Settings: at 10 µM, actives lie on both sides

| Structure (SMILES) | binding response (% of control) |
| --- | --- |
| CCCN1CNc2c(c(=O)[nH]c(=S)n2-c2ccc(Cl)cc2)C1 | inactive: 100% |
| Cc1cc(C(=O)NNC2CC(=O)N(c3ccc4ccccc4c3)C2=O)c(C)o1 (stereo not drawn) | inconclusive: 101% |
| CC1(N(O)C=C2C=CC(=O)C=C2)CCCCC1=O (stereo not drawn) | inconclusive: 55.3% |
| COc1ccc(-c2cc(C(F)(F)F)nc(S(=O)(=O)CCCC(=O)Nc3cc(C)on3)n2)cc1OC | inconclusive: 103% |
| O=c1c2ccc([N+](=O)[O-])cc2ncn1CCOc1ccccc1 | inconclusive: 91.2% |
| Cc1ccnn1CC(=O)N/N=C/c1ccc2c(c1)OCO2 | inactive: 101% |
| COCCOn1c(SCCOC)nc2ccccc2c1=O | inconclusive: 107% |
| Cc1ccc(-n2c(N)c(C(=O)N3CCOCC3)sc2=S)cc1 | inactive: 120% |
| Cc1ccc(OCc2ccc(C(=O)NN)o2)c([N+](=O)[O-])c1 | inconclusive: 71.4% |
| O=C(CC1CCC1)NC(c1ccccc1)c1ccccc1 | inconclusive: 97.1% |
| Cc1nc(SCc2ccccc2)c2ccsc2n1 | inconclusive: 111% |
| COC(=O)[C@@H]1C[C@@]2(O)[C@H](O)[C@H](O)[C@H](O)C[C@H]2N1C/C=C/c1ccccc1 | inconclusive: 110% |
| Clc1ccc(C2[C@H]3CN(Cc4ccc(-c5ccccc5)cc4)[C@H](c4ccccc4)C34CC2(c2cccnc2)C4)cn1 (stereo partly drawn) | inconclusive: 117% |
| O=C(Cn1cc(/C=C\[N+](=O)[O-])c2ccccc21)Nc1ccccc1 | inconclusive: 87.4% |
| N#Cc1cc(N2CCOCC2)nc2ccccc12 | inconclusive: 36.5% |
| CCOc1ccc(OCC(=O)Nc2ccc(OC)cc2[N+](=O)[O-])cc1 | inconclusive: 69.5% |
| O=C(CC1C(=O)NCCN1C(=O)Nc1ccccc1)Nc1cc(Cl)ccc1Cl (stereo not drawn) | inconclusive: 93.3% |
| COC(=O)c1cc(C(=O)c2cc(F)ccc2O)cn2c(=O)c3c(C)c(C)sc3nc12 | inconclusive: 82.8% |
| O=C(NCCc1nnc2ccc(NCC3CCCO3)nn12)c1ccccc1 (stereo not drawn) | inactive: 98.5% |
| CC(C)C(NC(=O)c1ccccc1)c1nnc(SCC(=O)Nc2nccs2)n1C (stereo not drawn) | inactive: 104% |
| C#CCOCCOCCOCCNc1nc(N2CCN(C(=O)[C@H](CCC(=O)O)n3cc(C(N)CO)nn3)CC2)nc(N2CCN(C(=O)[C@H](CCCCN)n3cc(C(N)CC(C)C)nn3)CC2)n1 (stereo partly drawn) | inconclusive: 126% |
| CCOc1c(OC(C)=O)ccc(/C=C2\N=C(SCC)SC2=O)c1[N+](=O)[O-] | inactive: 113% |
| Cc1ccc(Cl)cc1NC(=S)N(CCN(C)C)Cc1cccs1 | inconclusive: 119% |

Some values from above:
binding response (% of control), C#CCOCCOCCOCCNc1nc(N2CCN(C(=O)[C@H](CCC(=O)O)n3cc(C(N)CO)nn3)CC2)nc(N2CCN(C(=O)[C@H](CCCCN)n3cc(C(N)CC(C)C)nn3)CC2)n1 (stereo partly drawn) is entered as inconclusive: 126%
binding response (% of control), COCCOn1c(SCCOC)nc2ccccc2c1=O is entered as inconclusive: 107%
